Test results: the supplement of paper PMC12819154, “High-throughput peptide-centric local stability assay extends protein–ligand identification to membrane proteins, tissues and bacteria” (Nature Structural & Molecular Biology, 2025)
This is one part of the list. Most entries show no effect beyond the scatter of the controls.

The chains behind the UniProt entries cited, without tags or fusion partners. Where a name states a change or a piece, a line headed by the entry shows the natural chain unless it says otherwise.
UniProt Q8BWM0: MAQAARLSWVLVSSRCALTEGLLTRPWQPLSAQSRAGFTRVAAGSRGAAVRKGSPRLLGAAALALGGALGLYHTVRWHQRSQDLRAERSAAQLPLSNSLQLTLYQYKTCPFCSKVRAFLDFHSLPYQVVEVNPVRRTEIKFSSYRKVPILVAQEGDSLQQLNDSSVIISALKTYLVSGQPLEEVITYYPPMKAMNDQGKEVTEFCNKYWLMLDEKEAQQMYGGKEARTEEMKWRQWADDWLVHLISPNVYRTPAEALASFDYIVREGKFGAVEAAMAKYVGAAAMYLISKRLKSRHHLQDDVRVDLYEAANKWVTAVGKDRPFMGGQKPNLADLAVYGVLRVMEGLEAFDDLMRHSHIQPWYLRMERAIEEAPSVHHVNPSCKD
UniProt Q8C1S0: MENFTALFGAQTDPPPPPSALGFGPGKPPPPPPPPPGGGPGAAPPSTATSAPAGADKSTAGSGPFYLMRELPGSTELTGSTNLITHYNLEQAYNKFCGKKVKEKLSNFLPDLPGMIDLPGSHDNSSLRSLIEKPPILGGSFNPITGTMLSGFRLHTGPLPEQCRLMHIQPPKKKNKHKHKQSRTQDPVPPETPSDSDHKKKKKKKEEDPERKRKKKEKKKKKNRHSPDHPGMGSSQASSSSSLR
UniProt Q8C5W3: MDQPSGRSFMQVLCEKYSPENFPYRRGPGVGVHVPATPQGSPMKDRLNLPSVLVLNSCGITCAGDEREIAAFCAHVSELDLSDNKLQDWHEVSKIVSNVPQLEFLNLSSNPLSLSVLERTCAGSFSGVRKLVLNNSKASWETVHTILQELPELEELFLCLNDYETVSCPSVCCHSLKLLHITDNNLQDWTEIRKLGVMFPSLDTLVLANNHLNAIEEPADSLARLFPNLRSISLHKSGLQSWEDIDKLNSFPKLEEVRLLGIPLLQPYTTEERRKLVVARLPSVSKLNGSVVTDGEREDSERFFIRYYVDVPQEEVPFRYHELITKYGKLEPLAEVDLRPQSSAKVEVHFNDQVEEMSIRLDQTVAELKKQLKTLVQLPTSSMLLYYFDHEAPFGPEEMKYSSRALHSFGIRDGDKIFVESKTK
UniProt Q8C7D2: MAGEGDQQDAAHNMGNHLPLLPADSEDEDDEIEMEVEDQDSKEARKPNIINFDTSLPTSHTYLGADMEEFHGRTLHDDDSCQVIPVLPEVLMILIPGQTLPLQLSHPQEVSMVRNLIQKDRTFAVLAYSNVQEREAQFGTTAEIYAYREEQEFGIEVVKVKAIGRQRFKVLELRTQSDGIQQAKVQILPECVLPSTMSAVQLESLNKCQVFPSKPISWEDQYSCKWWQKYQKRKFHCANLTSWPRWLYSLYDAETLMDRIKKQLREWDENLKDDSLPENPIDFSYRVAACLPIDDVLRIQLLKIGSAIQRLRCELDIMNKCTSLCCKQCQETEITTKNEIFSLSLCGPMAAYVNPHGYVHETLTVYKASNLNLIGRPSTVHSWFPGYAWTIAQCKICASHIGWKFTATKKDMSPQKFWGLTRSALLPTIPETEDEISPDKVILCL
UniProt Q8C1A5, whole entry: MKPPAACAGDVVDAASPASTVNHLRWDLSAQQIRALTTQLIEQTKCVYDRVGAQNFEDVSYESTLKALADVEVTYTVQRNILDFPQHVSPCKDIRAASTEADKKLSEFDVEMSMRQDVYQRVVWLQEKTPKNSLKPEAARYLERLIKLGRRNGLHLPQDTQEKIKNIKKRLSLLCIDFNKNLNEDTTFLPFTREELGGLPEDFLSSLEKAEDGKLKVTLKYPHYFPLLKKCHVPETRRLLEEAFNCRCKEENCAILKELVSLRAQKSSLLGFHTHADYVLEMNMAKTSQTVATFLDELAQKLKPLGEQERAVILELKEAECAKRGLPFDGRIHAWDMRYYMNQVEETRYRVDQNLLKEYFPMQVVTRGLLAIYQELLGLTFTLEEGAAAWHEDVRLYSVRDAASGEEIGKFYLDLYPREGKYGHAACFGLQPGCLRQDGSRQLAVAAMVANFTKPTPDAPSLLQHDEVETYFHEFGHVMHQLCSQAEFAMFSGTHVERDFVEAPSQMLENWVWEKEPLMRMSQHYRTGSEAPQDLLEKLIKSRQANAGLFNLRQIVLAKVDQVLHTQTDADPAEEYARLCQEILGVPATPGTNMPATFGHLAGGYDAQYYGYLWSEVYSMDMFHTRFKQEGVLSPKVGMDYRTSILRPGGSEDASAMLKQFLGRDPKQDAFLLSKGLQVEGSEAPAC
UniProt Q8BXV2: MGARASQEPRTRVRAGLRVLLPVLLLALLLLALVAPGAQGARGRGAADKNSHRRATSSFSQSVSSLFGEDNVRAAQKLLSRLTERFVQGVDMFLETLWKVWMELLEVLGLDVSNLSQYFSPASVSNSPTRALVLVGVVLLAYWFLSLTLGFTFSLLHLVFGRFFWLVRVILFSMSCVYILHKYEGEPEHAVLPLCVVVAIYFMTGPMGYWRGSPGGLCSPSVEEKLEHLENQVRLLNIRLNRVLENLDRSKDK
UniProt Q8BYR2: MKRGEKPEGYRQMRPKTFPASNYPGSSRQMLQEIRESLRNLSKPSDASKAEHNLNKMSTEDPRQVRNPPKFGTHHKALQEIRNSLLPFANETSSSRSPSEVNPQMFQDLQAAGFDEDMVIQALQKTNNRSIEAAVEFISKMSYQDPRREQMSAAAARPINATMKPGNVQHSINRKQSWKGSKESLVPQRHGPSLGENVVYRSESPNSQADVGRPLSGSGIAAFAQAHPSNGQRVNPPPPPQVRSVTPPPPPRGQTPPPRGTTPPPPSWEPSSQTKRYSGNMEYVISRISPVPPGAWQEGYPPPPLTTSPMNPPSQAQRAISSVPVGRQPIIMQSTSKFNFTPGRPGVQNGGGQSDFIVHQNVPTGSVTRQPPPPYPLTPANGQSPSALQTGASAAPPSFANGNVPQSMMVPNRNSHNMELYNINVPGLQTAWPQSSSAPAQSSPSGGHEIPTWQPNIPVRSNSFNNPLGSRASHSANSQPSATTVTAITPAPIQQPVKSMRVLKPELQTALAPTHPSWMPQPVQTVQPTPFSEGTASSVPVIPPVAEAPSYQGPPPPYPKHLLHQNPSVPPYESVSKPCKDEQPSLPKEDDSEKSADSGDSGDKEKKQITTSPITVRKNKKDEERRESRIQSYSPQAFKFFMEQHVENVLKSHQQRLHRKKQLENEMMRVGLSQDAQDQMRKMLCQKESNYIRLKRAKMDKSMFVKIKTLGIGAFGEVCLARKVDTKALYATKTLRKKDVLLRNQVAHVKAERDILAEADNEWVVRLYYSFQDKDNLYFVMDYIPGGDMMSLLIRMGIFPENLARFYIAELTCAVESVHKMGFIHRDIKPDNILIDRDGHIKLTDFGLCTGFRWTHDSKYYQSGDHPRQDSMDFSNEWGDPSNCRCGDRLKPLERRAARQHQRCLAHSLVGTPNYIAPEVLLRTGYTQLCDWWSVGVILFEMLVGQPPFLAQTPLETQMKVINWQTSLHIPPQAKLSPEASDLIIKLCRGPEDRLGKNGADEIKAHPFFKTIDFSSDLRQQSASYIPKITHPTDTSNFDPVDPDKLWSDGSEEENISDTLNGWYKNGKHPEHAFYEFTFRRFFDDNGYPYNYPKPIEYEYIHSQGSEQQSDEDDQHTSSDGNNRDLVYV
UniProt Q8BZ98: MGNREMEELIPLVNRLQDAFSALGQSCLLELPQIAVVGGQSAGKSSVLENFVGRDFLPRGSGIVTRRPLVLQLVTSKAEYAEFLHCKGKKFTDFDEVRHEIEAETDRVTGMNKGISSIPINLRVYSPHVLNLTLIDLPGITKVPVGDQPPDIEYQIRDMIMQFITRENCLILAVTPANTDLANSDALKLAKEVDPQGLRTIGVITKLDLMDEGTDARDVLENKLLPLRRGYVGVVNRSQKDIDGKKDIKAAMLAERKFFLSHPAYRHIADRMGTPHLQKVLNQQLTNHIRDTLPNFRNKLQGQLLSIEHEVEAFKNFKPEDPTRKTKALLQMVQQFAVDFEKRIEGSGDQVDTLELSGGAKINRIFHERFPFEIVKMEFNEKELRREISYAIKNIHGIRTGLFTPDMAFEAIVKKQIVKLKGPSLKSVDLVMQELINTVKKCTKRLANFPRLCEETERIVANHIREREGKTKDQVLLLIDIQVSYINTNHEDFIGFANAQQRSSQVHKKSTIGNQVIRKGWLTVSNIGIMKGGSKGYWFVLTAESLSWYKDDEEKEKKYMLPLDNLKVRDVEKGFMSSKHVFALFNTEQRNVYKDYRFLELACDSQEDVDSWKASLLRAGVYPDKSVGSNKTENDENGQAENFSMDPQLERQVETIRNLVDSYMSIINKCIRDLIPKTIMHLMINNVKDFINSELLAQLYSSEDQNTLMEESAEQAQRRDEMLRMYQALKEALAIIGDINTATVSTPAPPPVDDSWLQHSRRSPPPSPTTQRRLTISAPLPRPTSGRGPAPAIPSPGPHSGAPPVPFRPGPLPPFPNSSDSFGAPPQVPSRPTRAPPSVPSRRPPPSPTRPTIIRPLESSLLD
UniProt Q8BWH0: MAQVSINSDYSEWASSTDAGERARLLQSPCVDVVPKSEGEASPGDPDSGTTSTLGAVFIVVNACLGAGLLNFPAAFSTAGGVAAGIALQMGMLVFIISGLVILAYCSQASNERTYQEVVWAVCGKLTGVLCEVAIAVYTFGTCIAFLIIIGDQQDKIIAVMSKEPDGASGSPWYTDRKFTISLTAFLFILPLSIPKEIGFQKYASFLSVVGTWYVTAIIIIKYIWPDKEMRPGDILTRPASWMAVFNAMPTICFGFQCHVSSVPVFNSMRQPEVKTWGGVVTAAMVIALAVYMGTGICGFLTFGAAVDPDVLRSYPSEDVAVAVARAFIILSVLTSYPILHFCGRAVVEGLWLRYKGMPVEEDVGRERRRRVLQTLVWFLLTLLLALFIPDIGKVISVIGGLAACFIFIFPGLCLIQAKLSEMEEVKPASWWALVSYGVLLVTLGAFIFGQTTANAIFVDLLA
UniProt Q8BXL9: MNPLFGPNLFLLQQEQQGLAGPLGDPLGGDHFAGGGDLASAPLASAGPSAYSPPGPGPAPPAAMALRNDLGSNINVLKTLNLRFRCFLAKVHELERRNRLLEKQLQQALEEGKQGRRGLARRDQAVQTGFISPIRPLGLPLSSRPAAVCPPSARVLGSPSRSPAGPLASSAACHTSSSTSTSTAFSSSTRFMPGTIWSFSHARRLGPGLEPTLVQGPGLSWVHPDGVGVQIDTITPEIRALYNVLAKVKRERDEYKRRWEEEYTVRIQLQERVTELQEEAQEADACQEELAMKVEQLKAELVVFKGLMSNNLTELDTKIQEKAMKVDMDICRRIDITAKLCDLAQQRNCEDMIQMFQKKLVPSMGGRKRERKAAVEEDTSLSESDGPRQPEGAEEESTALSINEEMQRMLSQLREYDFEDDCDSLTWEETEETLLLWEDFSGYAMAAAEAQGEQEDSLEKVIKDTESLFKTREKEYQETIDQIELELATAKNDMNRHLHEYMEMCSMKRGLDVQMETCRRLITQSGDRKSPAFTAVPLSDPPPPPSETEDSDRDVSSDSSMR
UniProt Q8BZX4: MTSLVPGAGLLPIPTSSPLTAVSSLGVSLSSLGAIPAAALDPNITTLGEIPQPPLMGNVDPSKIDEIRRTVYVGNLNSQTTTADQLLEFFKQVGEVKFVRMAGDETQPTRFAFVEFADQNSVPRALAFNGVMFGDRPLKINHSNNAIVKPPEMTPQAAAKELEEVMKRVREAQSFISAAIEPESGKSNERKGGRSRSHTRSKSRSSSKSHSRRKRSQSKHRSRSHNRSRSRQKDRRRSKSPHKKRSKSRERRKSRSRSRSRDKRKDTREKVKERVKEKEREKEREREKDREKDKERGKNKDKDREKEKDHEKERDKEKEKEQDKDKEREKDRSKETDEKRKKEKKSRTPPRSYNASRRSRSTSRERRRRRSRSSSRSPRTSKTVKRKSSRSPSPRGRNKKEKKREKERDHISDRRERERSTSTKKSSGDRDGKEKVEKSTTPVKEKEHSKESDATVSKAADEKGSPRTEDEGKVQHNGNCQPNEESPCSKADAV
UniProt Q8C726: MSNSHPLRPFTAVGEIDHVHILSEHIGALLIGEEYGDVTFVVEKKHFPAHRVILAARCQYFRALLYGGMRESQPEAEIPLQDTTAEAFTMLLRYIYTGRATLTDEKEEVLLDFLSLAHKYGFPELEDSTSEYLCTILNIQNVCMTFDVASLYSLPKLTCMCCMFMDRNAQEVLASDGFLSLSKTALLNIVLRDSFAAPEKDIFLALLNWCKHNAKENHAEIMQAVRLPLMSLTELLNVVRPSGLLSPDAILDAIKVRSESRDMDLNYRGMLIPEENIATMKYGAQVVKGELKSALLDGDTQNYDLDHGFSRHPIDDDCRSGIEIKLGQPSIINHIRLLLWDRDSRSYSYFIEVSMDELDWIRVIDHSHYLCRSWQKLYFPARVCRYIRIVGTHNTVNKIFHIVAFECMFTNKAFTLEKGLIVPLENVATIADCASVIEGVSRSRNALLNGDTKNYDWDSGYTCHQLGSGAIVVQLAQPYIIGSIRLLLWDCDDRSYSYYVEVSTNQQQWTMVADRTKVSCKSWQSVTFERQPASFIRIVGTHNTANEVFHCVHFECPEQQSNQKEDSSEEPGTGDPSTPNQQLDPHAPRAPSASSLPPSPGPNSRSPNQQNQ

Compound: CN[C@@H]1C[C@H]2O[C@@](C)([C@@H]1OC)n1c3ccccc3c3c4c(c5c6ccccc6n2c5c31)C(=O)NC4 [staurosporine]
Assay: log2 fold change of tryptic peptide abundance, ligand vs vehicle (limited proteolysis) (log2 ratio); higher = more trypsin-susceptible (destabilized)
Details: ligand concentration: 20 uM; sample: mouse liver crude lysate; replicate design: treated separately

Target | log2 fold change
UniProt Q8BWM0 (peptide sequence: AIEEAPSVHHVNPSCKD, peptide start residue: 368) | 0.31
UniProt Q8C1S0 (peptide sequence: HSPDHPGMGSSQASSSSSLR, peptide start residue: 225) | -0.127
UniProt Q8C5W3 (peptide sequence: LEPLAEVDLRPQSSAK, peptide start residue: 330) | -0.436
UniProt Q8C7G5 (peptide sequence: ELFHPYAER, peptide start residue: 184) | 0.392
UniProt Q8C167 (peptide sequence: LFEETGHEDPITK, peptide start residue: 425) | -0.255
UniProt Q8C7D2 (peptide sequence: FKVLELR, peptide start residue: 168) | 0.0484
UniProt Q8C3J5 (peptide sequence: SSVVFADEK, peptide start residue: 1703) | -0.353
UniProt Q8BWU8 (peptide sequence: QMELLNTNSR, peptide start residue: 73) | -0.192
UniProt Q8BZR9 (peptide sequence: NVALDRDMMKK, peptide start residue: 108) | 0.639
UniProt Q8BYN3 (peptide sequence: VFVVGESYTVVQRPSLK, peptide start residue: 200) | -0.12
UniProt Q8C3B8 (peptide sequence: GSQEVLGQAAR, peptide start residue: 2) | 0.525
UniProt Q8C1A5 (peptide sequence: TSILRPGGSEDASAMLK, peptide start residue: 643) | -0.525
UniProt Q8BZZ3 (peptide sequence: QVLLTHNR, peptide start residue: 103) | -0.189
UniProt Q8BY02 (peptide sequence: VFLQDHCLAEGYGTK, peptide start residue: 380) | 0.587
UniProt Q8C5R2 (peptide sequence: NGDHVGVWHR, peptide start residue: 243) | -0.519
UniProt Q8BYW1 (peptide sequence: HLSNDQR, peptide start residue: 493) | 0.237

Some of the entries so far, with tabs.
Target	log2 fold change
UniProt Q8C1S0 (peptide sequence: HSPDHPGMGSSQASSSSSLR, peptide start residue: 225)	-0.127
UniProt Q8C3B8 (peptide sequence: GSQEVLGQAAR, peptide start residue: 2)	0.525

Later entries.

Target | log2 fold change
UniProt Q8BWJ3 (peptide sequence: SLLHHILSGK, peptide start residue: 953) | 0.699
UniProt Q8BXV2 (peptide sequence: LEHLENQVR, peptide start residue: 226) | 0.217
UniProt Q8BYR2 (peptide sequence: YYQSGDHPR, peptide start residue: 860) | -0.623
UniProt Q8BZ98 (peptide sequence: LTISAPLPRPTSGR, peptide start residue: 774) | 0.0724
UniProt Q8BWH0 (peptide sequence: LLQSPCVDVVPK, peptide start residue: 25) | -0.0829
UniProt Q8BVG4 (peptide sequence: KSSGLIVSK, peptide start residue: 42) | -0.485
UniProt Q8BXL9 (peptide sequence: GLDVQMETCRR, peptide start residue: 460) | -0.172
UniProt Q8BZX4 (peptide sequence: EHSKESDATVSK, peptide start residue: 447) | 0.872
UniProt Q8BZN4 (peptide sequence: ASMADWLR, peptide start residue: 342) | 0.397
UniProt Q8C9A2 (peptide sequence: KAPEPGFQEQK, peptide start residue: 301) | 0.387
UniProt Q8C0M9 (peptide sequence: GAQNADCPK, peptide start residue: 173) | -0.146
UniProt Q8C726 (peptide sequence: TALLNIVLR, peptide start residue: 184) | -0.413
UniProt Q8C172 (peptide sequence: VFTAITKHPDEK, peptide start residue: 86) | 0.00399
UniProt Q8BVW3 (peptide sequence: GHPVGLAEEEAVR, peptide start residue: 53) | -0.281
UniProt Q8C827 (peptide sequence: DCGKSFSYNSLLLQHK, peptide start residue: 415) | -0.192
